The supplement of paper PMC10849652
The list shows a part of the results.

Protein sequences, listed by entry. Tags and fused reporters are not part of them. Lines headed by an entry give the natural chain unless they say otherwise; changes in a name come on top.
UniProt Q9Y4Y9: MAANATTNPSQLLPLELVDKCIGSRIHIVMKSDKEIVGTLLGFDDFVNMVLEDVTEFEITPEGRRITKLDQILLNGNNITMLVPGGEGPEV
UniProt P12980: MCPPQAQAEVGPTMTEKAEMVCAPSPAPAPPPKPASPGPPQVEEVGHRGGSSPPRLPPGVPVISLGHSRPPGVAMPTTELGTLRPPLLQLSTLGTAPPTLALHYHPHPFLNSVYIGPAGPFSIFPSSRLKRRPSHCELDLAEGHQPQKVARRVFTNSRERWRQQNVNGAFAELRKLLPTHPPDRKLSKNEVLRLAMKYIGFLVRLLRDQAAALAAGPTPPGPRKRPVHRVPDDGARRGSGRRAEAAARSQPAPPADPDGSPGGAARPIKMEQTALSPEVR
UniProt Q92585: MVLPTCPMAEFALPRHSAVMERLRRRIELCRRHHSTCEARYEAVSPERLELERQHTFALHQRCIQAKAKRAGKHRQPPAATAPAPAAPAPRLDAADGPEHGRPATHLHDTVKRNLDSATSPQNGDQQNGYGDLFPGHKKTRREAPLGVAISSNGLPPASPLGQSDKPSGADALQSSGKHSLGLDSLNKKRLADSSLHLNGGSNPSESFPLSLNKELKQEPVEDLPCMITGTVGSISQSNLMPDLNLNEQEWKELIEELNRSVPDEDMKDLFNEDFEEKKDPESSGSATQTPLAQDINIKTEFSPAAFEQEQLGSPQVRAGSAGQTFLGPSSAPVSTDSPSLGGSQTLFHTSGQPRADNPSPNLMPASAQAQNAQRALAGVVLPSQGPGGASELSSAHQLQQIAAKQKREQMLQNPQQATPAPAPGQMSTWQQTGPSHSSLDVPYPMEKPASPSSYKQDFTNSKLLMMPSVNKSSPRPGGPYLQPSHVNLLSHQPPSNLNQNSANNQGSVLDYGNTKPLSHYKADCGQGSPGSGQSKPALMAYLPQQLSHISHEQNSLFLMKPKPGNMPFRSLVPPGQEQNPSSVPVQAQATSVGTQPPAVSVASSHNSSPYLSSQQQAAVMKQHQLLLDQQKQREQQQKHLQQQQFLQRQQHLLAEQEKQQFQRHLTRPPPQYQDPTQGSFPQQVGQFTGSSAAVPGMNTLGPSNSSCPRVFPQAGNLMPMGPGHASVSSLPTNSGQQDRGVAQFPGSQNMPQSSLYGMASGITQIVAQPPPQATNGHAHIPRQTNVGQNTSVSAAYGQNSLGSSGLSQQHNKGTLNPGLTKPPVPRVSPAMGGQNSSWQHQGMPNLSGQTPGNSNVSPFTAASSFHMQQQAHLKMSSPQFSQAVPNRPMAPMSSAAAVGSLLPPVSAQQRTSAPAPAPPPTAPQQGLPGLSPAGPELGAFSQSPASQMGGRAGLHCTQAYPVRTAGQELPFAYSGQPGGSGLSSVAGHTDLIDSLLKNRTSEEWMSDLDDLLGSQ
UniProt Q9Y4K4: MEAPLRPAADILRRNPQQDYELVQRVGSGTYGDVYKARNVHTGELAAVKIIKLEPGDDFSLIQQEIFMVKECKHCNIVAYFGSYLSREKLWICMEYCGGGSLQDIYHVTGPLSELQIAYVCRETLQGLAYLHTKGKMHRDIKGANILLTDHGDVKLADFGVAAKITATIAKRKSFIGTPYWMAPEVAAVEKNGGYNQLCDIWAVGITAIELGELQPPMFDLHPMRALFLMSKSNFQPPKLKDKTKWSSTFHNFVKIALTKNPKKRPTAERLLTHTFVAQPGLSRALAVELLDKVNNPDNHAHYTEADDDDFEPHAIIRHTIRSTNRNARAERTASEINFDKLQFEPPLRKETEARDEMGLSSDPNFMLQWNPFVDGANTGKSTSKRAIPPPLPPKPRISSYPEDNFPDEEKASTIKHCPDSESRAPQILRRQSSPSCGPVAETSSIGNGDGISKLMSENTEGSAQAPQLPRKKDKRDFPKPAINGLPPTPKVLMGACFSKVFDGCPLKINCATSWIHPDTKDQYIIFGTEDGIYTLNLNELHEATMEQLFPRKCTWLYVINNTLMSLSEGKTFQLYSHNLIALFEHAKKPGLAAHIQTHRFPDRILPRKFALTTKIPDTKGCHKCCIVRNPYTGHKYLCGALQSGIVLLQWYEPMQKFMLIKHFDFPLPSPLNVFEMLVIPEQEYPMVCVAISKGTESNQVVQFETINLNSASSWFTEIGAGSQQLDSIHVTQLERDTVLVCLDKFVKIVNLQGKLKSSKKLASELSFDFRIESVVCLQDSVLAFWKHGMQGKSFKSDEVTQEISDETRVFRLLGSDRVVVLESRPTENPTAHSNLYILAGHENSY
UniProt Q8WVR3: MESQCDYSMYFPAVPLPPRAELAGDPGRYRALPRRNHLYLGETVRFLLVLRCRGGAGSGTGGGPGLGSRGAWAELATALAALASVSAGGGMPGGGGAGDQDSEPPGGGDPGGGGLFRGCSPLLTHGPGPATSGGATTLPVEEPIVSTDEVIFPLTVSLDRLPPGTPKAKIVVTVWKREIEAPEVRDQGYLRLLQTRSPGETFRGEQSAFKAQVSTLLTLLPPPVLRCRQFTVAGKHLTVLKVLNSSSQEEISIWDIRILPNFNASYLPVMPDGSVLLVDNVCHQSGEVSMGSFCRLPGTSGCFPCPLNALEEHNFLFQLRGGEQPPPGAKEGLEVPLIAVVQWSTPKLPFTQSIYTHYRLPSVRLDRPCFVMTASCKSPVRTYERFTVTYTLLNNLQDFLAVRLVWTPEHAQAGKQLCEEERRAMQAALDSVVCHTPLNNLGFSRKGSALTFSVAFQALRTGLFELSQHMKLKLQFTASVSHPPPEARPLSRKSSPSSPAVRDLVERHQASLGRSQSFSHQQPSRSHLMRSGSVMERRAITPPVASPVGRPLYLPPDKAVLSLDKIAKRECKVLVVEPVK
UniProt O15525: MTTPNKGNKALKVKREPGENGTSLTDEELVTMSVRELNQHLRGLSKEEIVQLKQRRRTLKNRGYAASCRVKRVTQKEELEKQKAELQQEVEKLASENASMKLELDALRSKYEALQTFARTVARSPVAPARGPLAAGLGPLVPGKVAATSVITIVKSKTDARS
UniProt Q15759, whole entry, looked up: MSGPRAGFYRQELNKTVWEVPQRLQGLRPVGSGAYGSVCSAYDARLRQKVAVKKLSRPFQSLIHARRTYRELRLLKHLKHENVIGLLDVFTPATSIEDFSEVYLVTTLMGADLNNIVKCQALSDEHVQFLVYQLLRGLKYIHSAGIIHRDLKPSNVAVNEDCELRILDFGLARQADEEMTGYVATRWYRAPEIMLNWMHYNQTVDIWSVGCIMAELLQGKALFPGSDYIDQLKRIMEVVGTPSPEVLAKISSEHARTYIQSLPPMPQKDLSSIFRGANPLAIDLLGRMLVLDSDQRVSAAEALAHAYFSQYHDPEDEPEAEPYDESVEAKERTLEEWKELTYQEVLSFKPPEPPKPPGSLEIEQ
UniProt Q32MZ4: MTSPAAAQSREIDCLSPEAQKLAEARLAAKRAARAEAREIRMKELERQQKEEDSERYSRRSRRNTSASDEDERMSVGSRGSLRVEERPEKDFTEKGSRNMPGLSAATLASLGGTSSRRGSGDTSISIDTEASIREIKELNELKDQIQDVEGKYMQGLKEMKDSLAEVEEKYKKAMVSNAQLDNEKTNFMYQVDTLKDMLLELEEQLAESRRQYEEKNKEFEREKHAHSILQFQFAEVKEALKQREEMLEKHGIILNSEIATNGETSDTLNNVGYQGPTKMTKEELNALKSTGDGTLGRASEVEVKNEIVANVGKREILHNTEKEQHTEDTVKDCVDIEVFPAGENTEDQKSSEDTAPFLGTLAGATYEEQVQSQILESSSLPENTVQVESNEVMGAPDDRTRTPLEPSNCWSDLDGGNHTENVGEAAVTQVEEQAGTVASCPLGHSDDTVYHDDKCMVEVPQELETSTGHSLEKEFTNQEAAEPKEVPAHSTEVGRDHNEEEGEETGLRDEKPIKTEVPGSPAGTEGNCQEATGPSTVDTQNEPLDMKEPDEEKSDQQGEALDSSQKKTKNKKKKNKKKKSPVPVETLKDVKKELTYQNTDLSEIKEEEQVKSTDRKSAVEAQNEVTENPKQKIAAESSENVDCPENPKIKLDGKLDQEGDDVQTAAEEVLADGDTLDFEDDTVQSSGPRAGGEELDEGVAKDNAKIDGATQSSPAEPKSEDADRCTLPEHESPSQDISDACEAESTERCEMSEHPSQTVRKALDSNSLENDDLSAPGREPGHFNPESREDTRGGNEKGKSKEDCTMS
UniProt Q9UPY8, whole entry, looked up: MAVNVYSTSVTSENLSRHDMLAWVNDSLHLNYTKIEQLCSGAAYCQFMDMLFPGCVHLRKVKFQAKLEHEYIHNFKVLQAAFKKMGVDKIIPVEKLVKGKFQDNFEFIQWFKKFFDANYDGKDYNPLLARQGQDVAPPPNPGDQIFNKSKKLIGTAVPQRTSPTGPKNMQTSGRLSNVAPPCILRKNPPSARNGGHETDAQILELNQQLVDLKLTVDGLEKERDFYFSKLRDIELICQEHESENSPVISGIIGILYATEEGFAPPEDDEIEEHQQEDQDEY
UniProt Q8IVH8: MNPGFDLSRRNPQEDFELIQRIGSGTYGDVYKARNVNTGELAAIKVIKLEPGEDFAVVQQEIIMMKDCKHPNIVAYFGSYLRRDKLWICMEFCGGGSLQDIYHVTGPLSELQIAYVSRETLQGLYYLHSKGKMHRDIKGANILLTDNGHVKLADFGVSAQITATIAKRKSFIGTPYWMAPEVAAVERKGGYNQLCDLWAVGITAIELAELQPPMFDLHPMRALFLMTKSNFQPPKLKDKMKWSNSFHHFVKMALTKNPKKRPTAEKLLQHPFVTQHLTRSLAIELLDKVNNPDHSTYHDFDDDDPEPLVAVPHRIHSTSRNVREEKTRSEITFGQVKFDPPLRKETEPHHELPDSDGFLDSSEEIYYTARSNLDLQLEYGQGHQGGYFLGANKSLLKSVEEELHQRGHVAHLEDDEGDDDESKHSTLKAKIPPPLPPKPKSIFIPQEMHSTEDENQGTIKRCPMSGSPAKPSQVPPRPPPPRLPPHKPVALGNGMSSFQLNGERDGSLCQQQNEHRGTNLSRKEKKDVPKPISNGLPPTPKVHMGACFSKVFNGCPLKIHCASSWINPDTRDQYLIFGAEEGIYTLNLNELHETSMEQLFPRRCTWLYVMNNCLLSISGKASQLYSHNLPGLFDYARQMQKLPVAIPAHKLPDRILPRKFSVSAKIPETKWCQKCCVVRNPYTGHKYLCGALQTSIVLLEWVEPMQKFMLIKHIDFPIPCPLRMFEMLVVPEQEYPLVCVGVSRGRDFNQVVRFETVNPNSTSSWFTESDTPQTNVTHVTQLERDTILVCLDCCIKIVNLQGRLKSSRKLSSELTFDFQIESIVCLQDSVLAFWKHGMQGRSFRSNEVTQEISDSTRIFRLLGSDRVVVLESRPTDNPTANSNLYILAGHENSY
UniProt P27816: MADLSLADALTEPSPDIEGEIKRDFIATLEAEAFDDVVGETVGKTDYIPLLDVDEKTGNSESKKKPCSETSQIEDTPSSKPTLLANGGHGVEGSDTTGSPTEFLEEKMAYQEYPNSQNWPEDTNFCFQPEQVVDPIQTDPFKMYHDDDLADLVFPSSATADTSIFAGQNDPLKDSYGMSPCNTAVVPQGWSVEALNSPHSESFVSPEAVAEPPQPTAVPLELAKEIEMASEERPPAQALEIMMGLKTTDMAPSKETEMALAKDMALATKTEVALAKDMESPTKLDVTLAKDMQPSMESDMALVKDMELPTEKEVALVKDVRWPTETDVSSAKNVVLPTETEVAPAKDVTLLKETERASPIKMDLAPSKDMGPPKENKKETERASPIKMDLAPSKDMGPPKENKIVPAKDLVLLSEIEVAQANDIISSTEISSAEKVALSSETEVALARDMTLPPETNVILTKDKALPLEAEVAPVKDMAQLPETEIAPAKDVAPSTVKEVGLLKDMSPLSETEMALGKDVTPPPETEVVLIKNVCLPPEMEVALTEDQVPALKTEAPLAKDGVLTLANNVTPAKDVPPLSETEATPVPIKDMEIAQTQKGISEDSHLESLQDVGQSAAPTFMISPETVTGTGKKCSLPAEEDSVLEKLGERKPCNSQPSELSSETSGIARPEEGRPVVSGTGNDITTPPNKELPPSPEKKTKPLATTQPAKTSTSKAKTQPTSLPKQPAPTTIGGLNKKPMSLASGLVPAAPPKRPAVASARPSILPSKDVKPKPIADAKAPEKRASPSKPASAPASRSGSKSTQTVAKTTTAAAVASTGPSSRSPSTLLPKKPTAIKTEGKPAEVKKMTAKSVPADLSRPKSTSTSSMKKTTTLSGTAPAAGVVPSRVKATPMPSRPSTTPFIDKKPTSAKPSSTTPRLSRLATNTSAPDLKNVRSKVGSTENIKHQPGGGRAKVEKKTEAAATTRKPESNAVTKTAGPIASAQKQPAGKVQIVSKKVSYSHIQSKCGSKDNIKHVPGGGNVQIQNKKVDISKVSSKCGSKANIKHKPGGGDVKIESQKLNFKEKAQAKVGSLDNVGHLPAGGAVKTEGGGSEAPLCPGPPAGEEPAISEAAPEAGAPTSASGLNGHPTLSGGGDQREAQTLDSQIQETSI

What was measured:
Test in all cases: log2 fold change, soluble protein after heating vs DMSO (PISA); higher = thermal stabilisation; K562 cells, 10 uM, 30 min; active = over 0.2 and 3.5 SD of the protein, either way, in both replicates (recomputed)
[1] = compound: CN1CCN(c2nc(C3=C(c4c[nH]c5ccccc45)C(=O)NC3=O)c3ccccc3n2)CC1 [sotrastaurin]
Procedure, shortened: (§1)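 K562 cells at 2×10^6 cells/mL were treated for 30 min with 10 μM compound, and aliquots were heated for 3 min over 48°C-58°C before pooling. Extraction used PBS with 0.5% NP-40 at 4°C, and soluble protein was the supernatant after 21,000xg for 90 min, measured by TMTpro 16plex LC-MS/MS with channel sums equalised. Thermal stability values, relative to control samples and from duplicates, are log2 fold changes.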

[2] = compound: CN1CC[C@H](c2c(O)cc(O)c3c(=O)cc(-c4ccccc4Cl)oc23)[C@H](O)C1 [alvocidib]
Procedure, shortened: as §1

[3] = compound: CNC(=O)C1=CC=CC=C1NC2=NC(=NC=C2Cl)NC3=C(C=C(C=C3)N4CCOCC4)OC
Procedure, shortened: as §1

[4] = compound: CNCc1ccc(-c2[nH]c3cc(F)cc4c3c2CCNC4=O)cc1 [rucaparib]
Procedure, shortened: as §1

[5] = compound: COC(=O)N[C@@H](C)CNc1nccc(-c2cn(C(C)C)nc2-c2cc(Cl)cc(NS(C)(=O)=O)c2F)n1 [encorafenib]
Procedure, shortened: as §1

[6] = compound: CON(C)C(=O)N1N=C(c2cc(F)ccc2F)S[C@@]1(CCCN)c1ccccc1 [filanesib]
Procedure, shortened: as §1

[7] = compound: CO[C@H]1C[C@@H]2CC[C@@H](C)[C@@](O)(O2)C(=O)C(=O)N2CCCC[C@H]2C(=O)O[C@H]([C@H](C)C[C@@H]2CC[C@H](n3cnnn3)[C@H](OC)C2)CC(=O)[C@H](C)/C=C(\C)[C@@H](O)[C@@H](OC)C(=O)[C@H](C)C[C@H](C)/C=C/C=C/C=C/1C [zotarolimus]
Procedure, shortened: as §1

[8] = compound: COc1cc2ncnc(Nc3ccc(F)c(Cl)c3)c2cc1OCCCN1CCOCC1 [gefitinib]
Procedure, shortened: as §1

[9] = compound: CS(=O)(=O)N1CCN(Cc2cc3nc(-c4cccc5[nH]ncc45)nc(N4CCOCC4)c3s2)CC1 [pictilisib]
Procedure, shortened: as §1

[10] = compound: CN1CCc2c(c3ccccc3n2Cc2ccc(C(=O)NO)cc2)C1 [Tubastatin A]
Procedure, shortened: as §1

[11] = compound: COC1=CC=C(C=C1)CN2C=CC3=C2C=C(C=C3)C(=O)NO
Procedure, shortened: as §1

[12] = compound: COc1cc(C(=O)O)ccc1NC(=O)[C@@H]1N[C@@H](CC(C)(C)C)[C@](C#N)(c2ccc(Cl)cc2F)[C@H]1c1cccc(Cl)c1F [idasanutlin]
Procedure, shortened: as §1

[13] = compound: COc1cc2nc(-c3cc(F)ccc3O)nc(N[C@@H]3CNC[C@H]3C(C)(C)O)c2cc1OC
Procedure, shortened: as §1

[14] = compound: COc1cccc2cc(-c3nc([C@H]4CC[C@H](C(=O)O)CC4)n4ncnc(N)c34)[nH]c12
Procedure, shortened: as §1

[15] = compound: CS(=O)(=O)CCNCc1ccc(-c2ccc3ncnc(Nc4ccc(OCc5cccc(F)c5)c(Cl)c4)c3c2)o1 [lapatinib]
Procedure, shortened: as §1

[16] = compound: COc1cc(Nc2ncc3c(n2)-c2ccc(Cl)cc2C(c2c(F)cccc2OC)=NC3)ccc1C(=O)O [alisertib]
Procedure, shortened: as §1

[17] = compound: CNC(=O)c1ccc(Nc2ncc(C(F)(F)F)c(NCc3nccnc3N(C)S(C)(=O)=O)n2)cc1 [defactinib]
Procedure, shortened: as §1

[18] = compound: COC(=O)[C@H](CCSC)NC(=O)C1=C(C=C(C=C1)NC[C@H](CS)N)C2=CC=CC=C2
Procedure, shortened: as §1

[19] = compound: CN1CCN(CCOc2cc(OC3CCOCC3)c3c(Nc4c(Cl)ccc5c4OCO5)ncnc3c2)CC1 [saracatinib]
Procedure, shortened: as §1

[20] = compound: CNc1nc(-c2ccc3c(N)n[nH]c3c2)cc(N2C[C@@H](C(=O)NC3CCCCC3)CC[C@H]2C)n1
Procedure, shortened: as §1

Measured: log2 fold change

MAP7D3 (UniProt Q8IWC1)
inactive: [1] 0.006 | [2] 0.241 | [3] -0.04 | [4] 0.108 | [5] 0.069 | [6] 0.236 | [7] 0.027 | [8] 0.007 | [9] -0.03

MAP3K20 isoform 2 (UniProt Q9NYL2)
inactive: [1] 0.059 | [10] 0.093 | [3] -0.024 | [11] 0.044 | [6] 0.068 | [12] 0.407 | [13] 0.036 | [8] -0.003 | [14] -0.242 | [15] -0.121

LSM5 (UniProt Q9Y4Y9)
inactive: [1] -0.058 | [2] -0.531 | [10] -0.06 | [3] 0.122 | [4] -0.001 | [5] -0.056 | [11] -0.114 | [6] -0.101 | [7] -0.055 | [16] -0.09 | [8] -0.042 | [14] 0.179 | [9] -0.423

LYL1 (UniProt P12980)
inactive: [1] 0.036 | [2] 0.046 | [10] 0.083 | [3] -0.011 | [17] 0.016 | [4] 0.251 | [5] 0.151 | [18] -0.202 | [11] -0.037 | [6] 0.153 | [7] -0.073 | [12] 0.04 | [16] -0.091 | [13] 0.16 | [8] 0.027 | [14] -0.134 | [15] -0.012

MAN2B1 (UniProt M0QYZ1)
inactive: [11] -0.235 | [12] -0.238 | [13] 0.221 | [15] -0.161

MAML1 (UniProt Q92585)
active: [3] 0.644
inactive: [1] -0.051 | [17] -0.179 | [18] -0.327 | [11] -0.065 | [6] 0.152 | [7] -0.065

MAP4K5 (UniProt Q9Y4K4)
inactive: [10] 0.113 | [3] -0.02 | [17] -0.02 | [4] -0.08 | [5] 0.082 | [18] -0.041 | [11] 0.01 | [6] -0.083 | [7] 0.021 | [12] 0.067 | [16] 0.134 | [13] 0.224 | [8] -0.011 | [14] 0.011 | [15] 0.15 | [9] 0.012

LSM14A, A0A140TA76
inactive: [10] 0.028 | [17] 0.217 | [18] -0.088 | [12] -0.034 | [16] 0.083 | [14] -0.141

MAP11 (UniProt Q8WVR3)
inactive: [1] -0.08 | [2] -0.268 | [3] -0.188 | [17] -0.158 | [4] 0.103 | [5] -0.006 | [18] 0.017 | [11] -0.117 | [6] 0.216 | [7] -0.138 | [16] -0.032 | [8] -0.086 | [14] 0.105 | [9] 0.105

MANSC1 (UniProt Q9H8J5)
inactive: [2] -0.315 | [10] -0.099 | [7] 0.015 | [12] -0.006 | [8] -0.062

MAFG (UniProt O15525)
inactive: [2] 0.124 | [17] 0.082 | [18] -0.007 | [7] -0.101 | [12] 0.165 | [9] -0.142

MAPK11 (UniProt Q15759)
inactive: [10] 0.208 | [3] 0.615 | [11] -0.126 | [9] 0.068

LRRFIP1 isoform 4 (UniProt Q32MZ4)
inactive: [19] 0.008 | [3] -0.111 | [20] -0.089 | [11] -0.061 | [7] 0.202 | [12] 0.108 | [9] -0.046

MAPRE3 isoform 2 (UniProt Q9UPY8)
inactive: [10] 0.13 | [11] 0.192 | [7] 0.008 | [12] 0.155 | [13] -0.176 | [8] -0.02 | [15] -0.265

LYST (UniProt Q99698)
inactive: [19] -0.081 | [17] -0.004 | [20] -0.08 | [18] 0.063 | [16] -0.261 | [8] -0.051 | [14] 0.426 | [9] 0.37

LYPLA1, A0A087X1K9
inactive: [19] -0.199 | [20] 0.201 | [16] -0.052 | [14] 0.043

MAP4K3 (UniProt Q8IVH8)
inactive: [1] -0.284 | [3] -0.067 | [17] -0.184 | [4] -0.219 | [5] 0.373 | [18] 0.119 | [11] -0.023 | [6] -0.117

LRRCC1 (UniProt Q9C099)
inactive: [19] 0 | [10] 0.292 | [20] 0.06 | [12] -0.069

Looked up one by one from above (two):
MAP4K3 (UniProt Q8IVH8)
inactive: [1] -0.284 | [3] -0.067 | [17] -0.184 | [4] -0.219 | [5] 0.373 | [18] 0.119 | [11] -0.023 | [6] -0.117

LYPLA1, A0A087X1K9
inactive: [19] -0.199 | [20] 0.201 | [16] -0.052 | [14] 0.043

The list goes on:

MAP4 isoform 5 (UniProt P27816)
inactive: [1] -0.16 | [3] 0.13 | [4] 0.046 | [5] 0.094 | [6] -0.039 | [12] -0.025 | [16] 0.143 | [13] -0.033 | [8] -0.005 | [14] -0.045 | [15] 0.036
